{"source": "patent US6020121A", "about": "(priority 1996, dated 2000)", "test_system": "alpha-hemolysin", "type": "cell-based, Staphylococcus aureus", "data": [{"smiles": "CCC[C@@H]1C[C@@H](C(=O)N[C@@H]([C@H]2O[C@H](SC)[C@H](O)[C@@H](O)[C@H]2O)[C@H](C)Cl)N(C)C1", "note": "[clindamycin]", "values": [{"measurement": "alpha-hemolysin activity (in words)", "value": "did not inhibit alpha-hemolysin activity"}]}]}
